PubChem BioAssay AID1259308, NCATS, 2017
Screen: 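Genes whose loss raises luciferase production in HEK293 cells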 (primary screen). Cells: human HEK293 embryonic kidney cells stably expressing firefly luciferase (HEK-CMV-Luc2-Hygro). Reagent: single siRNA against human genes, 0.8 pmol siRNA per well. Duration: 72 h. Measured: 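Luciferase light (ONE-Glo) measured on one replicate plate set and viability (CellTiter-Glo) on the other, scaled to a negative control siRNA, with robust z-scores and luciferase per cell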. Reading the numbers: total luciferase, z-score and total luciferase, % of control: higher = more reporter protein produced; luciferase per cell, z-score: higher = more reporter output per viable cell; viable cells, % of control: higher = more viable cells. Rule for the call: 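An siRNA counts as active if its total luciferase robust z-score exceeds 3; genes with two or more such siRNAs out of three were retested with fresh siRNAs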. Meaning of the calls: active = raised luciferase; inactive = no rise.
In all, the deposit lists about 59,000 reagents; below is a random part of them. Of all reagents, about 1,510 (2.6%) are marked active. 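Calls use total luciferase alone and ignore viability, so some active siRNAs may act by altering cell number.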 The numbers tell different reagents against one gene apart.

gene knocked down | siRNA no. | total luciferase, z-score | total luciferase, % of control | luciferase per cell, z-score | viable cells, % of control | Outcome
USP17L9P (GeneID 391627) | 1 | 0.774 | 97.3 | 0.313 | 100 | inactive
USP17L9P (GeneID 391627) | 2 | 3.13 | 144 | 2.22 | 89.7 | active
USP17L9P (GeneID 391627) | 3 | -0.107 | 79.8 | -1.03 | 117 | inactive
NOTCH3 (GeneID 4854) | 1 | -0.0958 | 80 | 1.22 | 64.9 | inactive
NOTCH3 (GeneID 4854) | 2 | 1.1 | 104 | 0.192 | 110 | inactive
NOTCH3 (GeneID 4854) | 3 | -0.915 | 63.7 | 0.0236 | 70.7 | inactive
TRIM51 (GeneID 84767) | 1 | -0.161 | 78.7 | -0.526 | 101 | inactive
TRIM51 (GeneID 84767) | 2 | -0.79 | 66.2 | -0.183 | 77.6 | inactive
TRIM51 (GeneID 84767) | 3 | 0.628 | 94.4 | 0.303 | 97.4 | inactive
APBB1 (GeneID 322) | 1 | 0.785 | 97.5 | 0.39 | 98.3 | inactive
APBB1 (GeneID 322) | 2 | -0.6 | 69.9 | -0.732 | 94.8 | inactive
APBB1 (GeneID 322) | 3 | 0.834 | 98.5 | 0.724 | 90.9 | inactive
ZAR1 (GeneID 326340) | 1 | 0.709 | 96 | 0.486 | 94.4 | inactive
ZAR1 (GeneID 326340) | 2 | -1.48 | 52.4 | -0.958 | 75.4 | inactive
ZAR1 (GeneID 326340) | 3 | 0.385 | 89.6 | -0.128 | 103 | inactive
OR9I1 (GeneID 219954) | 1 | -0.937 | 63.3 | -0.275 | 76 | inactive
OR9I1 (GeneID 219954) | 2 | 2.69 | 135 | 3.47 | 60.6 | inactive
OR9I1 (GeneID 219954) | 3 | 0.102 | 83.9 | -0.34 | 103 | inactive
DNAAF2 (GeneID 55172) | 1 | 2.99 | 141 | 2.05 | 92 | inactive
DNAAF2 (GeneID 55172) | 2 | 0.616 | 94.1 | 0.401 | 94.7 | inactive
DNAAF2 (GeneID 55172) | 3 | -0.89 | 64.2 | -1.95 | 120 | inactive

As entered above.
For “Outcome”, DNAAF2 (GeneID 55172) #1 has inactive
TRIM51 (GeneID 84767) #1, Outcome → inactive

More results follow:
gene knocked down | siRNA no. | total luciferase, z-score | total luciferase, % of control | luciferase per cell, z-score | viable cells, % of control | Outcome
GOLM2 (GeneID 113201) | 1 | 1.63 | 114 | 1 | 98 | inactive
GOLM2 (GeneID 113201) | 2 | 0.794 | 97.7 | 0.675 | 91.4 | inactive
GOLM2 (GeneID 113201) | 3 | -0.0827 | 80.2 | -0.323 | 97.6 | inactive
NMS (GeneID 129521) | 1 | 0.428 | 90.4 | 0.806 | 81.7 | inactive
NMS (GeneID 129521) | 2 | 2.19 | 125 | 2.04 | 81.9 | inactive
NMS (GeneID 129521) | 3 | 0.0939 | 83.8 | 0.697 | 77.9 | inactive
ZSWIM6 (GeneID 57688) | 1 | 3.24 | 146 | 2.34 | 88.2 | active
ZSWIM6 (GeneID 57688) | 2 | 1.38 | 109 | 1.32 | 86.3 | inactive
ZSWIM6 (GeneID 57688) | 3 | 0.376 | 89.4 | -0.451 | 112 | inactive
MBD4 (GeneID 8930) | 1 | -0.909 | 63.8 | -1.14 | 96.2 | inactive
MBD4 (GeneID 8930) | 2 | -0.0876 | 80.1 | -0.5 | 102 | inactive
MBD4 (GeneID 8930) | 3 | 0.838 | 98.6 | 0.827 | 88.6 | inactive
PABPC3 (GeneID 5042) | 1 | 0.604 | 93.9 | 0.103 | 102 | inactive
PABPC3 (GeneID 5042) | 2 | 2.96 | 141 | 3.02 | 70.9 | inactive
PABPC3 (GeneID 5042) | 3 | 0.386 | 89.6 | 0.257 | 93.5 | inactive
ACO2P1 (GeneID 441996) | 1 | 2.83 | 138 | 2.06 | 89.7 | inactive
ACO2P1 (GeneID 441996) | 2 | 2.08 | 123 | 2.01 | 81.2 | inactive
ACO2P1 (GeneID 441996) | 3 | -0.0349 | 81.2 | -0.0108 | 91 | inactive
